MtTrpRS: 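Tryptophan-tRNA ligase, Mycobacterium tuberculosis (UniProt P9WFT3). Enzyme assay of tryptophanyl-tRNA synthetase; the read-out is not stated. Compounds at 10 µM. Direction is not recorded; retested compounds ran higher, which suggests that high means inhibition. Size under these conditions: about 65,000 compounds, about 64 of them at 50% or above in at least one test.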
Leishmania in macrophages: 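Cell assay of Leishmania donovani living inside macrophages; the read-out is not stated. Concentration: 30 µM. Higher reads as stronger inhibition (inferred: compounds with an IC50 in retests scored well above the rest). Of about 69,000 compounds tested this way, about 1,000 (1.5%) reached 50% or more in at least one test.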

Protein sequences, listed by entry. Tags and fused reporters are not part of them.
UniProt P9WFT3, whole entry: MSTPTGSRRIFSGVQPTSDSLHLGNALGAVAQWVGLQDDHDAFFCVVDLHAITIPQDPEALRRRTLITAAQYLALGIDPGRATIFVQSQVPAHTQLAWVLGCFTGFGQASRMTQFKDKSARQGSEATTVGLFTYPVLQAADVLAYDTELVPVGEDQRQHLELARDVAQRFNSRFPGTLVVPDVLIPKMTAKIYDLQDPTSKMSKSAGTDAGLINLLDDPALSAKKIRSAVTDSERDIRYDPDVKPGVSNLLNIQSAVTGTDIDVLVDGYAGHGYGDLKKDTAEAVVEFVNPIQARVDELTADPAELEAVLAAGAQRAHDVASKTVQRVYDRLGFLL

Results are given as percent effect.
The controls that fix the scale are not given in the record; negative values are as filed.
The compounds are a random part of those screened.
Two or more numbers in one place are separate tests of the same structure; such repeats can differ widely.
A dash means the value is not listed here; it may have been measured.

SMILES,MtTrpRS,Leishmania in macrophages
Cc1cc(C(=O)N2CCN[C@H](C)C2)c2ccc(F)cc2n1,-3.377%,-13.76%
CCOc1ccccc1CNC(=O)N1CCC(Cc2cnn(C)c2)C1 (stereo not shown),8.632%,12.5%
Cc1nc(C)n(C2CCCN(C(=O)Cc3cccnc3)C2)n1 (stereo not shown),-0.3752%,21.15%
CCN(C)Cc1cccc(CNC(=O)NCCc2ccccn2)c1,0.4542%,48.76%
Cc1nn(C)c(C)c1NC(=O)CN1CCCC1c1noc(C2CC2)n1 (stereo not shown),-2.21%,3.723%
CN1CCCN(C[C@@H]2CN(C(=O)N3CCOCC3)C[C@@H]2CO)CC1,2.26%,-12.11%
CC(OCc1ccccc1)C(=O)NCc1ccc(N(C)C)cc1 (stereo not shown),-1.881%,-10.61%
O=C(Cc1csc(-c2ccccc2F)n1)NCc1cccc(C(=O)O)c1,-2.251%,27.25%
O=C(c1nsc(Cl)c1Cl)N1CCc2nc3sccc3c(=O)n2CC1,-1.569%,0.6202%
CN(CCN1CCN(c2ccccc2)CC1)C(=O)Nc1ccccn1,2.028%,17.23%
CCCS(=O)(=O)N1CCN(c2cc(-n3cnc(C)c3C)ncn2)CC1,-4.31%,-33.57%
O=C(c1ccoc1)N1CCC2(CC1)COC(COCc1ccccn1)C2 (stereo not shown),2.124%,-65.99%
Cc1ccc(N2CC[C@H](OCC3CC3)[C@@H]2Cc2cnn(C)c2)nn1,3.377%,-4.165%
O=C(c1cnoc1)N1CCC[C@]2(C[C@@H](OCc3ccccn3)CO2)C1,0.08224%,-
CCC(=O)N1CSCC1C(=O)Nc1ccccc1-c1cccs1 (stereo not shown),-3.199%,4.479%
COCCn1cc2c(n1)C(CNCc1cccc(OC)c1)OCC2.O=C(O)C(F)(F)F (stereo not shown),-,-9.412%
CC1CCN(c2nc3c(cnn3-c3ccccc3)c(=O)[nH]2)CC1,-5.924%,11.7%
Cc1nc(-c2nnc[nH]2)sc1C(=O)N1CCCC1c1ccsc1 (stereo not shown),-5.054%,14.34%
Cc1ccc(-n2cc(C)cn2)c(NC(=O)NC2(C)CCOC2)c1 (stereo not shown),-10.91%,-1.249%
Cc1nc(CN(C)C2CCN(Cc3c(C)noc3C)C2)no1 (stereo not shown),4.801%,4.628%
[H][C@]12CC[C@]([H])(CN(C(C)=O)C1)N(S(=O)(=O)c1ccccc1Cl)C2,-,2.066%
O=C(C1CCOc2ccccc2C1)N1Cc2cnn(CCO)c2C1 (stereo not shown),10.17%,25.43%
CCC(SC)C(=O)N1CCC(n2cccn2)CC1 (stereo not shown),4.505%,-1.459%
CN(C)C1CCN(C(=O)c2cc3c(s2)CCN3C(=O)C2CC2)CC1.O=C(O)C(F)(F)F,-,5.583%
O=C(O)C(F)(F)F.O=C(O)C(F)(F)F.[H][C@@]12C[C@@H](Oc3cncnc3)CN1CCN(C(=O)Cc1ccccn1)C2,-,40.7%
Cc1[nH]/c(=N\C(=O)c2csc(NC3CCCC3)n2)sc1C,-8.282%,100.1%
Cc1nc(O)cc([C@@H]2CN(S(=O)(=O)N(C)C)C[C@H]2c2ccccc2F)n1,-3.958%,-6.044%
Cc1ccc(C(=O)NC2CCN(C(=O)Nc3ccccn3)CC2)o1,-2.893%,-8.473%
CC(Cn1cccn1)NCCS(=O)(=O)c1ccc(Cl)cc1 (stereo not shown),-0.6173%,21.14%
COCCN1C(=O)C2(CCC(C(=O)Nc3ccccn3)CC2)N=C1C (stereo not shown),-3.456%,9.735%
CS(=O)(=O)N(Cc1ccon1)c1cccc(Br)c1,-2.374%,-5.832%
Cc1cccc(CN2C[C@H]3OC(=O)N(CCCN4CCOCC4)[C@H]3C2)n1,1.599%,-
C[C@@H]1CN(C(=O)C2CCS(=O)(=O)CC2)C[C@]1(C)O,0.9167%,-5.514%
CCC(=O)N1CCCCC1c1nc(O)c2c(n1)CN(S(=O)(=O)CC)CC2 (stereo not shown),1.042%,19.04%
Cc1cc(SCC(=O)O)nc2nn(CC(F)F)c(C)c12,-,11.06%
CCN1C(=O)C(c2ccccc2)CC12CCN(Cc1cccnc1)CC2.O=C(O)C(F)(F)F.O=C(O)C(F)(F)F (stereo not shown),-,-5.876%
Cc1nc(C)c(CC(=O)NCc2cccnc2OC2CCCC2)c(=O)[nH]1,0.2141%,10.15%
[H][C@@]12CCCO[C@]1([H])[C@H](OCC(=O)N(C)C)CN2Cc1c(C)noc1C,-,-13.3%
CCc1noc(CN(C)C(=O)C2COc3ccccc3C2)n1 (stereo not shown),2.536%,4.43%
CN(C)[C@@H]1CCN(C(=O)c2ccsc2)[C@H]1Cc1cccnc1.O=C(O)C(F)(F)F.O=C(O)C(F)(F)F,-,-23.41%
CCCN1CCC(NC(=O)NCCc2nc(CC)c(C)s2)CC1,0.7505%,2.038%
Cn1ccc(C(=O)N2CCC(Cc3cnc4[nH]ccc4c3)C2)n1 (stereo not shown),-,25.54% & 6.781%
[H][C@]12CCCCN1CCC[C@H]2CN(C)Cc1ccc(-n2cccn2)cc1,-,21.34%
Cc1noc(C)c1CN(C)Cc1cnc(N2CCOCC2)nc1,-6.341%,-3.415%
CCC(NC(=O)C1CCN(C(C)C)CC1)c1cn2cccnc2n1 (stereo not shown),-2.347%,-4.3%
Cn1ccnc1CN1CCC2(CC1)COC2.O=C(O)C(F)(F)F,-,21.73%
COC(CNC(=O)c1cc(C)on1)c1ccccc1C (stereo not shown),-0.7098%,-4.536%
CC(C)c1ncc2c(n1)CN(CCCc1nc3ccccc3o1)CC2,-6.749%,36.29%
CCc1nc(C(=O)N(CC)CC(=O)Nc2cc(Cl)ccc2C)c[nH]1,0.4599%,14.1%
O=C(O)C(F)(F)F.c1cnc(N2CCC3(CCCN(CC4CC4)C3)CC2)nc1,-,32.8%
CN1C(=O)C2(CC(=O)Nc3[nH]ncc32)c2cc(Cl)ccc21 (stereo not shown),-0.2045%,10.25% & 1.666%
[H][C@@]12COC[C@]1(C(=O)NCCc1cccs1)CN(S(C)(=O)=O)C2,-,35.56%
CCc1ccccc1C(=O)N1C[C@@H](CN2CCOCC2)[C@@H](CO)C1,5.435%,-26.12%
O=C(NCc1cc2n(n1)CCCNC2)C1(c2ccccc2)CCCCC1,5.961%,-81.29%
Cn1cc(S(=O)(=O)N2CCCC(Cn3cncn3)C2)cn1 (stereo not shown),-2.006%,3.982%
CC(C)c1cccc(S(=O)(=O)NCCCN2CCC(O)CC2)c1,-1.288%,3.966%
CC(O)CC(C)(C)CNC(=O)Nc1cnn(-c2ccccc2F)c1 (stereo not shown),-6.153%,-9.741%
O=C(Cc1cc(F)cc(Cl)c1)N[C@@H]1CCNC[C@H]1O,7.207%,15.74%
O=C(O)C(F)(F)F.[H][C@@]12OCCN(C(=O)COc3ccccc3)[C@@]1([H])CC[C@H]2OCCN(C)C,-,28.35%
Cc1cc(CN(C)C(=O)c2ccc(Cl)cc2N2CCCC2=O)no1,-3.129%,29.1%
Nc1nc2c(c(N3CCCC(CN4CCCC4=O)C3)n1)CCNCC2 (stereo not shown),-6.089%,-2.128%

For reference, 6 entries once more:

- Cc1cc(C(=O)N2CCN[C@H](C)C2)c2ccc(F)cc2n1 | MtTrpRS: -3.377%; Leishmania in macrophages: -13.76%
- CC1CCN(c2nc3c(cnn3-c3ccccc3)c(=O)[nH]2)CC1 | MtTrpRS: -5.924%; Leishmania in macrophages: 11.7%
- Cc1nc(-c2nnc[nH]2)sc1C(=O)N1CCCC1c1ccsc1 (stereo not shown) | MtTrpRS: -5.054%; Leishmania in macrophages: 14.34%
- Cc1nc(O)cc([C@@H]2CN(S(=O)(=O)N(C)C)C[C@H]2c2ccccc2F)n1 | MtTrpRS: -3.958%; Leishmania in macrophages: -6.044%
- [H][C@@]12CCCO[C@]1([H])[C@H](OCC(=O)N(C)C)CN2Cc1c(C)noc1C | Leishmania in macrophages: -13.3%
- Cc1nc(C)c(CC(=O)NCc2cccnc2OC2CCCC2)c(=O)[nH]1 | MtTrpRS: 0.2141%; Leishmania in macrophages: 10.15%

Source: ChEMBL document CHEMBL3988442, “University of Dundee, Small-Polar-MMV Screening Library” (2021).